The results in this text go back to doi:10.1101/2025.02.07.636106.

Chains of the proteins cited; added tags and fusions are not shown. Residues count along the entry.
UniProt Q9P0T7, residues 21-183: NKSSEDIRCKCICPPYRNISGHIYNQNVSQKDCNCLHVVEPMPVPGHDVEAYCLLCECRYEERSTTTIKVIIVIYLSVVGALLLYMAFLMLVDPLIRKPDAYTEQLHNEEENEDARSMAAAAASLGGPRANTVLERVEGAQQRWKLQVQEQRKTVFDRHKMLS

Positions count from the first letter of the chain named. No constants are given. Whether binding was seen depends on the method and setting. In cells and extracts the contact can be indirect. Here binding means that the protein was enriched with, or labelled near, the bait; the list need not be complete. For some assays here: Sequences can lack the tags named with a protein.

T1: HA-TMEM230(Y29C) (human) (UniProt Q96A57)
T1 sequence: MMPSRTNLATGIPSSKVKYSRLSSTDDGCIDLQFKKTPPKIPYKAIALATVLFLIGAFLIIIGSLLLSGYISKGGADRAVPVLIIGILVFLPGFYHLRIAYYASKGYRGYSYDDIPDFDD

T2: HA-TMEM230 (WT, lentiviral) (human) (UniProt Q96A57)
T2 sequence: T1 sequence with C29Y

T3: TMEM230 (human (endogenous in HEK293 and in H9-derived iNeurons)) (UniProt Q96A57)
T3 sequence: T1 sequence with C29Y

B1: TMEM9B (protein, UniProt Q9NQ34 34-198)
chain: AKNFEDVRCKCICPPYKENSGHIYNKNISQKDCDCLHVVEPMPVRGPDVEAYCLRCECKYEERSSVTIKVTIIIYLSILGLLLLYMVYLTLVEPILKRRLFGHAQLIQSDDDIGDHQPFANAHDVLARSRSRANVLNKVEYAQQRWKLQVQEQRKSVFDRHVVLS
B2: CLCN5 (protein, UniProt P51795 1-816)
chain: MAMWQGAMDNRGFQQGSFSSFQNSSSDEDLMDIPATAMDFSMRDDVPPLDREVGEDKSYNGGGIGSSNRIMDFLEEPIPGVGTYDDFNTIDWVREKSRDRDRHREITNKSKESTWALIHSVSDAFSGWLLMLLIGLLSGSLAGLIDISAHWMTDLKEGICTGGFWFNHEHCCWNSEHVTFEERDKCPEWNSWSQLIISTDEGAFAYIVNYFMYVLWALLFAFLAVSLVKVFAPYACGSGIPEIKTILSGFIIRGYLGKWTLVIKTITLVLAVSSGLSLGKEGPLVHVACCCGNILCHCFNKYRKNEAKRREVLSAAAAAGVSVAFGAPIGGVLFSLEEVSYYFPLKTLWRSFFAALVAAFTLRSINPFGNSRLVLFYVEFHTPWHLFELVPFILLGIFGGLWGALFIRTNIAWCRKRKTTQLGKYPVIEVLVVTAITAILAFPNEYTRMSTSELISELFNDCGLLDSSKLCDYENRFNTSKGGELPDRPAGVGVYSAMWQLALTLILKIVITIFTFGMKIPSGLFIPSMAVGAIAGRLLGVGMEQLAYYHQEWTVFNSWCSQGADCITPGLYAMVGAAACLGGVTRMTVSLVVIMFELTGGLEYIVPLMAAAMTSKWVADALGREGIYDAHIRLNGYPFLEAKEEFAHKTLAMDVMKPRRNDPLLTVLTQDSMTVEDVETIISETTYSGFPVVVSRESQRLVGFVLRRDLIISIENARKKQDGVVSTSIIYFTEHSPPLPPYTPPTLKLRNILDLSPFTVTDLTPMEIVVDIFRKLGLRQCLVTHNGRLLGIITKKDVLKHIAQMANQDPDSILFN
B3: ATP8A1 (protein, UniProt Q9Y2Q0 1-1164)
chain: MPTMRRTVSEIRSRAEGYEKTDDVSEKTSLADQEEVRTIFINQPQLTKFCNNHVSTAKYNIITFLPRFLYSQFRRAANSFFLFIALLQQIPDVSPTGRYTTLVPLLFILAVAAIKEIIEDIKRHKADNAVNKKQTQVLRNGAWEIVHWEKVAVGEIVKVTNGEHLPADLISLSSSEPQAMCYIETSNLDGETNLKIRQGLPATSDIKDVDSLMRISGRIECESPNRHLYDFVGNIRLDGHGTVPLGADQILLRGAQLRNTQWVHGIVVYTGHDTKLMQNSTSPPLKLSNVERITNVQILILFCILIAMSLVCSVGSAIWNRRHSGKDWYLNLNYGGASNFGLNFLTFIILFNNLIPISLLVTLEVVKFTQAYFINWDLDMHYEPTDTAAMARTSNLNEELGQVKYIFSDKTGTLTCNVMQFKKCTIAGVAYGHVPEPEDYGCSPDEWQNSQFGDEKTFSDSSLLENLQNNHPTAPIICEFLTMMAVCHTAVPEREGDKIIYQAASPDEGALVRAAKQLNFVFTGRTPDSVIIDSLGQEERYELLNVLEFTSARKRMSVIVRTPSGKLRLYCKGADTVIYDRLAETSKYKEITLKHLEQFATEGLRTLCFAVAEISESDFQEWRAVYQRASTSVQNRLLKLEESYELIEKNLQLLGATAIEDKLQDQVPETIETLMKADIKIWILTGDKQETAINIGHSCKLLKKNMGMIVINEGSLDGTRETLSRHCTTLGDALRKENDFALIIDGKTLKYALTFGVRQYFLDLALSCKAVICCRVSPLQKSEVVEMVKKQVKVVTLAIGDGANDVSMIQTAHVGVGISGNEGLQAANSSDYSIAQFKYLKNLLMIHGAWNYNRVSKCILYCFYKNIVLYIIEIWFAFVNGFSGQILFERWCIGLYNVMFTAMPPLTLGIFERSCRKENMLKYPELYKTSQNALDFNTKVFWVHCLNGLFHSVILFWFPLKALQYGTAFGNGKTSDYLLLGNFVYTFVVITVCLKAGLETSYWTWFSHIAIWGSIALWVVFFGIYSSLWPAIPMAPDMSGEAAMLFSSGVFWMGLLFIPVASLLLDVVYKVIKRTAFKTLVDEVQELEAKSQDPGAVVLGKSLTERAQLLKNVFKKNHVNLYRSESLQQNLLHGYAFSQDENGIVSQSEVIRAYDTTKQRPDEW
B4: TMEM30A (protein, UniProt Q9NV96 1-361)
chain: MAMNYNAKDEVDGGPPCAPGGTAKTRRPDNTAFKQQRLPAWQPILTAGTVLPIFFIIGLIFIPIGIGIFVTSNNIREIEIDYTGTEPSSPCNKCLSPDVTPCFCTINFTLEKSFEGNVFMYYGLSNFYQNHRRYVKSRDDSQLNGDSSALLNPSKECEPYRRNEDKPIAPCGAIANSMFNDTLELFLIGNDSYPIPIALKKKGIAWWTDKNVKFRNPPGGDNLEERFKGTTKPVNWLKPVYMLDSDPDNNGFINEDFIVWMRTAALPTFRKLYRLIERKSDLHPTLPAGRYSLNVTYNYPVHYFDGRKRMILSTISWMGGKNPFLGIAYIAVGSISFLLGVVLLVINHKYRNSSNTADITI
B5: ATP8A2 (protein, UniProt Q9NTI2 1-1188)
chain: MLNGAGLDKALKMSLPRRSRIRSSVGPVRSSLGYKKAEDEMSRATSVGDQLEAPARTIYLNQPHLNKFRDNQISTAKYSVLTFLPRFLYEQIRRAANAFFLFIALLQQIPDVSPTGRYTTLVPLIIILTIAGIKEIVEDFKRHKADNAVNKKKTIVLRNGMWHTIMWKEVAVGDIVKVVNGQYLPADVVLLSSSEPQAMCYVETANLDGETNLKIRQGLSHTADMQTREVLMKLSGTIECEGPNRHLYDFTGNLNLDGKSLVALGPDQILLRGTQLRNTQWVFGIVVYTGHDTKLMQNSTKAPLKRSNVEKVTNVQILVLFGILLVMALVSSAGALYWNRSHGEKNWYIKKMDTTSDNFGYNLLTFIILYNNLIPISLLVTLEVVKYTQALFINWDTDMYYIGNDTPAMARTSNLNEELGQVKYLFSDKTGTLTCNIMNFKKCSIAGVTYGHFPELAREPSSDDFCRMPPPCSDSCDFDDPRLLKNIEDRHPTAPCIQEFLTLLAVCHTVVPEKDGDNIIYQASSPDEAALVKGAKKLGFVFTARTPFSVIIEAMGQEQTFGILNVLEFSSDRKRMSVIVRTPSGRLRLYCKGADNVIFERLSKDSKYMEETLCHLEYFATEGLRTLCVAYADLSENEYEEWLKVYQEASTILKDRAQRLEECYEIIEKNLLLLGATAIEDRLQAGVPETIATLLKAEIKIWVLTGDKQETAINIGYSCRLVSQNMALILLKEDSLDATRAAITQHCTDLGNLLGKENDVALIIDGHTLKYALSFEVRRSFLDLALSCKAVICCRVSPLQKSEIVDVVKKRVKAITLAIGDGANDVGMIQTAHVGVGISGNEGMQATNNSDYAIAQFSYLEKLLLVHGAWSYNRVTKCILYCFYKNVVLYIIELWFAFVNGFSGQILFERWCIGLYNVIFTALPPFTLGIFERSCTQESMLRFPQLYKITQNGEGFNTKVFWGHCINALVHSLILFWFPMKALEHDTVLTSGHATDYLFVGNIVYTYVVVTVCLKAGLETTAWTKFSHLAVWGSMLTWLVFFGIYSTIWPTIPIAPDMRGQATMVLSSAHFWLGLFLVPTACLIEDVAWRAAKHTCKKTLLEEVQELETKSRVLGKAVLRDSNGKRLNERDRLIKRLGRKTPPTLFRGSSLQQGVPHGYAFSQEEHGAVSQEEVIRAYDTTKKKSRKK
B6: ATP11B (protein, UniProt Q9Y2G3 1-1177)
chain: MWRWIRQQLGFDPPHQSDTRTIYVANRFPQNGLYTPQKFIDNRIISSKYTVWNFVPKNLFEQFRRVANFYFLIIFLVQLMIDTPTSPVTSGLPLFFVITVTAIKQGYEDWLRHNSDNEVNGAPVYVVRSGGLVKTRSKNIRVGDIVRIAKDEIFPADLVLLSSDRLDGSCHVTTASLDGETNLKTHVAVPETALLQTVANLDTLVAVIECQQPEADLYRFMGRMIITQQMEEIVRPLGPESLLLRGARLKNTKEIFGVAVYTGMETKMALNYKSKSQKRSAVEKSMNTFLIIYLVILISEAVISTILKYTWQAEEKWDEPWYNQKTEHQRNSSKILRFISDFLAFLVLYNFIIPISLYVTVEMQKFLGSFFIGWDLDLYHEESDQKAQVNTSDLNEELGQVEYVFTDKTGTLTENEMQFRECSINGMKYQEINGRLVPEGPTPDSSEGNLSYLSSLSHLNNLSHLTTSSSFRTSPENETELIKEHDLFFKAVSLCHTVQISNVQTDCTGDGPWQSNLAPSQLEYYASSPDEKALVEAAARIGIVFIGNSEETMEVKTLGKLERYKLLHILEFDSDRRRMSVIVQAPSGEKLLFAKGAESSILPKCIGGEIEKTRIHVDEFALKGLRTLCIAYRKFTSKEYEEIDKRIFEARTALQQREEKLAAVFQFIEKDLILLGATAVEDRLQDKVRETIEALRMAGIKVWVLTGDKHETAVSVSLSCGHFHRTMNILELINQKSDSECAEQLRQLARRITEDHVIQHGLVVDGTSLSLALREHEKLFMEVCRNCSAVLCCRMAPLQKAKVIRLIKISPEKPITLAVGDGANDVSMIQEAHVGIGIMGKEGRQAARNSDYAIARFKFLSKLLFVHGHFYYIRIATLVQYFFYKNVCFITPQFLYQFYCLFSQQTLYDSVYLTLYNICFTSLPILIYSLLEQHVDPHVLQNKPTLYRDISKNRLLSIKTFLYWTILGFSHAFIFFFGSYLLIGKDTSLLGNGQMFGNWTFGTLVFTVMVITVTVKMALETHFWTWINHLVTWGSIIFYFVFSLFYGGILWPFLGSQNMYFVFIQLLSSGSAWFAIILMVVTCLFLDIIKKVFDRHLHPTSTEKAQLTETNAGIKCLDSMCCFPEGEAACASVGRMLERVIGRCSPTHISRSWSASDPFYTNDRSILTLSTMDSSTC

The target in the first assay is TMEM9-HA (lentiviral, iNeurons) (human) (UniProt Q9P0T7). Nature of the assay: affinity purification with mass spectrometry; anti-HA immunoprecipitations from TMEM9-/- iNeurons (day 21) with or without lentiviral expression of TMEM9-HA, four biological replicates; 0.5% DDM extraction; TMT-MS.
Turning to B1, the binding result is “binds”.

B2: the binding entry is “binds”.

A further assay concerns the target T1, HA-TMEM230(Y29C) (human). Nature of the assay: affinity purification with mass spectrometry; TMEM230 immunoprecipitations from H9-TMEM230-/- iNeurons with or without lentiviral expression of WT and variant HA-TMEM230; 0.5% DDM extraction; TMT-MS.
As for B3, the binding entry was “binds”.

Regarding B4, the binding entry is “binds”.

As to B5, the binding result is given as “binds”.

As to B6, the binding entry is recorded as “binds”.

A further assay deals with T2, HA-TMEM230 (WT, lentiviral) (human). Described as above.
For B3, the binding result is “binds”.

Consider B4, for which the binding result is reported as “binds”.

Regarding B5, the binding result is listed as “binds”.

Consider B6, for which the binding entry was “binds”.

The target in another assay is T3, TMEM230 (human (endogenous in HEK293 and in H9-derived iNeurons)). Nature of the assay: affinity purification with mass spectrometry; anti-TMEM230 immune complexes from WT H9 iNeurons compared to H9-TMEM230-/- iNeurons; 0.5% DDM extraction; TMT-MS.
For the molecule B3, the binding entry is on record as “binds”.

Turning to B4, the binding result was “binds”.

With B5, the binding entry is recorded as “binds”.

In the case of B6, the binding entry is reported as “binds”.
